Data: US9566312B2, “Cyclic peptides and use as medicines” (priority 2012, dated 2017)
At least one peptide structure holds a part that was inferred or is arguable (an end, a ring closure or a residue). Starred links: 1 amine or outer side, 2 acyl side, 3 side chain; linkers in the order of their positions; H or OH if unused. Non-standard residues stand in square brackets, D forms with d. Residues, ends and D or L forms follow the SMILES beside them. X52 = C[C@H](CCC(=O)N1CCOCC1)[C@@H](C(=O)[*:2])N(C)[*:1]; MeBmt = C/C=C/C[C@@H](C)[C@@H](O)[C@H](NC)C(=O)O; NMeL = CN[C@@H](CC(C)C)C(=O)O; NMeV = CN[C@H](C(=O)O)C(C)C; dNMeA = CN[C@H](C)C(=O)O; Abu = CC[C@H](N)C(=O)O

Tested on: peripheral blood mononuclear cells (PBMC)
Assay: Anti-proliferative or immunosuppressive activity, BrdU incorporation in PHA-stimulated PBMC
Assay type: cell-based
Details: PHA 3 μg/ml, 60 hour compound treatment; read-out: EMV PBMC IC50
Experimental: Method 3: Measuring Anti-Proliferative or Immunosuppressive Activity
The potential anti-proliferative activity of compounds on T-cells was analyzed based on the amount of bromodesoxy uridine (BrdU) incorporated into DNA of fresh peripheral blood mononuclear cells (PBMC) using the BrdU ELISA kit (Roche). The assay is performed in 96-well plate format with 30,000 PBMCs seeded per well in X-VIVO 15 medium (Lonza). T-cell proliferation was stimulated by addition of 3 μg/ml phytohemagglutinin (PHA) in PBMCs obtained from two donors.

SMILES	IC50
C/C=C/C[C@@H](C)[C@@H](O)[C@H]1C(=O)N[C@@H](CC)C(=O)N(C)[C@H](C)C(=O)N(C)[C@@H]([C@H](C)CCC(=O)N2CCOCC2)C(=O)N[C@@H](C(C)C)C(=O)N(C)[C@@H](CC(C)C)C(=O)N[C@@H](C)C(=O)N[C@H](C)C(=O)N(C)[C@@H](CC(C)C)C(=O)N(C)[C@@H](CC(C)C)C(=O)N(C)[C@@H](C(C)C)C(=O)N1C [Compound 2.14.4, 3-[D-Ala]-4-[(2S,3R)-3-methyl-2-(methylamino)-6-morpholino-6-oxohexanoyl]-cyclosporin] (cyclo(A[dA][NMeL][NMeL][NMeV][MeBmt][Abu][dNMeA][X52]V[NMeL]))	7.1 µM
C/C=C/C[C@@H](C)[C@@H](O)[C@H]1C(=O)N[C@@H](CC)C(=O)N(C)[C@H](CC)C(=O)N(C)[C@@H]([C@H](C)COC)C(=O)N[C@@H](C(C)C)C(=O)N(C)[C@@H](CC(C)C)C(=O)N[C@@H](C)C(=O)N[C@H](C)C(=O)N(C)[C@@H](CC(C)C)C(=O)N(C)[C@@H](CC(C)C)C(=O)N(C)[C@@H](C(C)C)C(=O)N1C [Compound 3.1, 3-[(R)-2-(methylamino)butanoic acid]-4-[(2S,3S)-4-methoxy-3-methyl-2-(methylamino)butanoyl]-cyclosporin]	20.8 µM
